This is an account of results in PMC4494967.

The chains behind the UniProt entries cited, without tags or fusion partners.
UniProt Q969H0: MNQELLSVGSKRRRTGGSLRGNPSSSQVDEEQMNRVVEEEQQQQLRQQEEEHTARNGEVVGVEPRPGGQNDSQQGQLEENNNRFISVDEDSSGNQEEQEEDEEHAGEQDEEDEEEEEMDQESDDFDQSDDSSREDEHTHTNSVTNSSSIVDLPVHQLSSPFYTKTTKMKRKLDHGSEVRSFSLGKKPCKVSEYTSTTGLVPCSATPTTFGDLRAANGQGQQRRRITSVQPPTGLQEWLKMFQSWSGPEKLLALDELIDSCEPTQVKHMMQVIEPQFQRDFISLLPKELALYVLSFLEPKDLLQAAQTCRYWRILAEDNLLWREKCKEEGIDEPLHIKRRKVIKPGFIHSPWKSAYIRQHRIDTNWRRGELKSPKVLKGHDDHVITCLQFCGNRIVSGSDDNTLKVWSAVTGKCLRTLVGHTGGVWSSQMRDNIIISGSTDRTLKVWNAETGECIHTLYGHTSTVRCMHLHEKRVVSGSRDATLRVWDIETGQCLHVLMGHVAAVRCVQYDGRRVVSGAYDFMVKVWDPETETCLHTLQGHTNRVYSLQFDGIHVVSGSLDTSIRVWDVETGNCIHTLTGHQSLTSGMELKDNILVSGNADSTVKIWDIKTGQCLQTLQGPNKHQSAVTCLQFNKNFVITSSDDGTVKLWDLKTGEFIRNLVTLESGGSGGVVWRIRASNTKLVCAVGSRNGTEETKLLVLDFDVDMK
UniProt Q93009: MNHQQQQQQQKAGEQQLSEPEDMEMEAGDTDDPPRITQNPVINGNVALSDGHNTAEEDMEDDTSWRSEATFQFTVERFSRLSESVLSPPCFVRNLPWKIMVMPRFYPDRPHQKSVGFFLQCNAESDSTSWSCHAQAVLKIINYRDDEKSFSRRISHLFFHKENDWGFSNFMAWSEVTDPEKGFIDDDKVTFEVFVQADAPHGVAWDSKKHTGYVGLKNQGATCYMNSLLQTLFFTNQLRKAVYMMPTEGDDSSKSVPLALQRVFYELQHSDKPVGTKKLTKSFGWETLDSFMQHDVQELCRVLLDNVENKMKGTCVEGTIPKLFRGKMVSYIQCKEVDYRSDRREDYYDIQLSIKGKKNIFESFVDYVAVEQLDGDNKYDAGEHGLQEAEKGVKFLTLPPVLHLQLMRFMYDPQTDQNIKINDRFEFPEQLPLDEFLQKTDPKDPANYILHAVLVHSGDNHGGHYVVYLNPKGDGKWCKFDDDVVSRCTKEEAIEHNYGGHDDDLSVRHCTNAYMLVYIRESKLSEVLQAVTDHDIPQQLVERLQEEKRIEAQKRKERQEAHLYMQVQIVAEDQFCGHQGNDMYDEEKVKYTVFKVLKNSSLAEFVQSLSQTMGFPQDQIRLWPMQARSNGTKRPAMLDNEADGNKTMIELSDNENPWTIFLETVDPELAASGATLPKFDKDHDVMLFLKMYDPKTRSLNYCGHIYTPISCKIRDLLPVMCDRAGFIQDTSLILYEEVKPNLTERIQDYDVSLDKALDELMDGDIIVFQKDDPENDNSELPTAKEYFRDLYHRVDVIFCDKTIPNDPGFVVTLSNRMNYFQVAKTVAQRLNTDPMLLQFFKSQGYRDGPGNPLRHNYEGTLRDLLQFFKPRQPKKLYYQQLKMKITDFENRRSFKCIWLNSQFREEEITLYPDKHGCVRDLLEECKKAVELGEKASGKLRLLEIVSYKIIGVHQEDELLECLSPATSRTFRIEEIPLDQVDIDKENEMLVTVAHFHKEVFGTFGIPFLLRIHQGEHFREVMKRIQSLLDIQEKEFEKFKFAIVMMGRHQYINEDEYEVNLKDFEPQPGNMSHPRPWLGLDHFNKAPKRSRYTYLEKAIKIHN
UniProt P14635: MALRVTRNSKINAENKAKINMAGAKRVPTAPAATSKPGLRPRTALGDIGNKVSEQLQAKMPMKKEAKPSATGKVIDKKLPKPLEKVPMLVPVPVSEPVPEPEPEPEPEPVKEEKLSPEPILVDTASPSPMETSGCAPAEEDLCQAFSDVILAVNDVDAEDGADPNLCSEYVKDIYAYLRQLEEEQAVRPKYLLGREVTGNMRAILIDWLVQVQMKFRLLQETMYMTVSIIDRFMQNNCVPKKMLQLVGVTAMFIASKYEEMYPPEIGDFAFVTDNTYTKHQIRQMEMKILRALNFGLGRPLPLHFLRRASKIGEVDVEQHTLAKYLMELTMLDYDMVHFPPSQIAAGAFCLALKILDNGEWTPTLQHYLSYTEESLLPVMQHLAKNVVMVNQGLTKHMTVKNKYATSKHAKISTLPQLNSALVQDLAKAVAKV

Results are given in words; binding and its absence hold for the method and conditions named. Binding seen in cells or lysates may run through a third protein. Some entries that bind do so weakly or less than the wild type. For some assays here: Sequences can lack the tags named with a protein.

Test [1] deals with T1, myc-CCDC6 triple mutant SST359/413/427AAA (UniProt Q16204).
T1 sequence: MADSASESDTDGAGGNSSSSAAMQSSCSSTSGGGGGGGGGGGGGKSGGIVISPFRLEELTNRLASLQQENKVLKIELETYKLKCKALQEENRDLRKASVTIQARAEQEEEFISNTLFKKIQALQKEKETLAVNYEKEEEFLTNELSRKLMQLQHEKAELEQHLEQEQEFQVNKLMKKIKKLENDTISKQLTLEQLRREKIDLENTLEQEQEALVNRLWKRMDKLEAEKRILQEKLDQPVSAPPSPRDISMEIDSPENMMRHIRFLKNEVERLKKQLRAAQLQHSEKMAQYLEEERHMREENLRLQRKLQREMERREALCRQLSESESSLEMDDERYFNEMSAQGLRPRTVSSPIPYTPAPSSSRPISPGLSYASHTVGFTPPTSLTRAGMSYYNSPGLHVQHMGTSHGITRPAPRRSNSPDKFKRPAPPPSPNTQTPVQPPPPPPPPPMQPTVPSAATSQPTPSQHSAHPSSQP
As to the kind of experiment: co-IP; 293T cells co-transfected with myc-CCDC6 WT or TM and HA-FBXW7, in presence of MG132 (25 uM); IP anti-myc, immunoblot anti-HA.

Test [2] addresses T2, myc-CCDC6 wild type (UniProt Q16204).
T2 sequence: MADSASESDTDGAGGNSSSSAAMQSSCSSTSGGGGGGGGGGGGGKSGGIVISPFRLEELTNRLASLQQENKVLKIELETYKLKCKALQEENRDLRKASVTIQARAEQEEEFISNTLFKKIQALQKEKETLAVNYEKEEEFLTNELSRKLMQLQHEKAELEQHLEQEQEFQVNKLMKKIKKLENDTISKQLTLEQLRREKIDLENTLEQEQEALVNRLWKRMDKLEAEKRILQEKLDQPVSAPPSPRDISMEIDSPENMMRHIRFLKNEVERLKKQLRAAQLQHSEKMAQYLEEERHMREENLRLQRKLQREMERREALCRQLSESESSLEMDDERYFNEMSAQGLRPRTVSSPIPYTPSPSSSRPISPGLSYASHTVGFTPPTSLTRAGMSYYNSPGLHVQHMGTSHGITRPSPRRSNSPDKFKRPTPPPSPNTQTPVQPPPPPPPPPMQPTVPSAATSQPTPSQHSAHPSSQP
The description is as above.

In test [3] the target is T3, endogenous CCDC6 (293T) (human (endogenous in 293T)) (UniProt Q16204).
T3 sequence: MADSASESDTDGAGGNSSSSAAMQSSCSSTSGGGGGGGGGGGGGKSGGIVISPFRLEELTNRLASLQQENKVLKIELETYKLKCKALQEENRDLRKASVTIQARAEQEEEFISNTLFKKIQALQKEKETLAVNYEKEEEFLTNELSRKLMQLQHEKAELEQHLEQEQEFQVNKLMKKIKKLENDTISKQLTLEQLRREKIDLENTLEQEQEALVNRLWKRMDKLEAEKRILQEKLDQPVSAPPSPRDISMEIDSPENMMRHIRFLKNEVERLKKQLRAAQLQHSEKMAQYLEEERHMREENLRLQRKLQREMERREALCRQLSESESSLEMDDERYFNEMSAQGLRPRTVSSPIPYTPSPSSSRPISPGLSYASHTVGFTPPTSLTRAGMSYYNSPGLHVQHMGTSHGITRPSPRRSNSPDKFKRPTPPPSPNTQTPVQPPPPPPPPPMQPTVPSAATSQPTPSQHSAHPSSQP
As to the kind of experiment: co-IP; endogenous CCDC6 and USP7 from parental 293T cells; immunocomplexes analysed by western blot. For orientation: A western blot detects proteins with antibodies after separation by electrophoresis.

Test [4] has as its target T1, myc-CCDC6 triple mutant SST359/413/427AAA. As to the kind of experiment: co-IP; 293T cells transfected with myc-CCDC6 constructs (wt, 1-223, TM); IP anti-myc from whole cell lysates, western blot for USP7.
Test [5] addresses T2, myc-CCDC6 wild type. The test is described as above.
Test [6] deals with T4, myc-tagged CCDC6 truncated mutant (1-223) (UniProt Q16204).
T4 sequence: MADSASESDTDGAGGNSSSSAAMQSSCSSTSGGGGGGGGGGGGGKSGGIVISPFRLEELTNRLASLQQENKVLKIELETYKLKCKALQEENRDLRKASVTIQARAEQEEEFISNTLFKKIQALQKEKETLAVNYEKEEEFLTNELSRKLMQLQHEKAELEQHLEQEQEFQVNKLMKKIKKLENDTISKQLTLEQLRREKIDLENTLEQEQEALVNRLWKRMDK
Described as above.

In the next test the target is T5, S-tag-GFP-CCDC6 (UniProt Q16204).
T5 sequence: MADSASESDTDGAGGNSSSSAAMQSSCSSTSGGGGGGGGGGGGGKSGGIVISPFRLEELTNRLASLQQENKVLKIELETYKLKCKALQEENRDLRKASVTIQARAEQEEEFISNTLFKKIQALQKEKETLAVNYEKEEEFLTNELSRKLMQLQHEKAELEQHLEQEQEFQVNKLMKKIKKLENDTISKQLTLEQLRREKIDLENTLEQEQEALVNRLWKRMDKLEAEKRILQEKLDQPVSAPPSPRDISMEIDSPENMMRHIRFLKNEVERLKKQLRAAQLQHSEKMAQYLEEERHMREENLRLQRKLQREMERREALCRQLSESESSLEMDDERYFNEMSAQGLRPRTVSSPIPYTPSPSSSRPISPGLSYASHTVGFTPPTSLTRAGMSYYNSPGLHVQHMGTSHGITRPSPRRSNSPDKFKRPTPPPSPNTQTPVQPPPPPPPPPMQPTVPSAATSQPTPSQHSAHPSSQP
In words: pull-down; S-protein (S-tag) pull-down of S-tag-GFP-CCDC6 from asynchronous or mitotic (nocodazole) HeLa Kyoto extracts; immunoblot with anti-cyclin B, anti-GSK3, anti-CCDC6.

Turning to HA-FBXW7 (from UniProt Q969H0 1-707), the binding result (in test [1]; with myc-CCDC6 wild type [2]) was “binds” throughout.
Consider “USP7 (from UniProt Q93009 1-1102) (enzyme)”, for which the binding result (in test [3]; in test [4]; in the test with myc-CCDC6 wild type [5]; in test [6]) was “binds” each time.
For the molecule cyclin B1 (from UniProt P14635 1-433), in the test with S-tag-GFP-CCDC6, the binding entry is “binds”.

B1: endogenous CCDC6 (HeLa Kyoto) (protein, UniProt Q16204 1-474)
chain: MADSASESDTDGAGGNSSSSAAMQSSCSSTSGGGGGGGGGGGGGKSGGIVISPFRLEELTNRLASLQQENKVLKIELETYKLKCKALQEENRDLRKASVTIQARAEQEEEFISNTLFKKIQALQKEKETLAVNYEKEEEFLTNELSRKLMQLQHEKAELEQHLEQEQEFQVNKLMKKIKKLENDTISKQLTLEQLRREKIDLENTLEQEQEALVNRLWKRMDKLEAEKRILQEKLDQPVSAPPSPRDISMEIDSPENMMRHIRFLKNEVERLKKQLRAAQLQHSEKMAQYLEEERHMREENLRLQRKLQREMERREALCRQLSESESSLEMDDERYFNEMSAQGLRPRTVSSPIPYTPSPSSSRPISPGLSYASHTVGFTPPTSLTRAGMSYYNSPGLHVQHMGTSHGITRPSPRRSNSPDKFKRPTPPPSPNTQTPVQPPPPPPPPPMQPTVPSAATSQPTPSQHSAHPSSQP
In the case of B1, the binding entry in the test with S-tag-GFP-CCDC6 is “binds”.
